No constants are given. Whether binding was seen depends on the method and setting. Some binding calls cover weakened binding; strength is not graded here.
T1: endogenous MST1 of KB cells (UniProt Q13043)
T1 sequence (looked up): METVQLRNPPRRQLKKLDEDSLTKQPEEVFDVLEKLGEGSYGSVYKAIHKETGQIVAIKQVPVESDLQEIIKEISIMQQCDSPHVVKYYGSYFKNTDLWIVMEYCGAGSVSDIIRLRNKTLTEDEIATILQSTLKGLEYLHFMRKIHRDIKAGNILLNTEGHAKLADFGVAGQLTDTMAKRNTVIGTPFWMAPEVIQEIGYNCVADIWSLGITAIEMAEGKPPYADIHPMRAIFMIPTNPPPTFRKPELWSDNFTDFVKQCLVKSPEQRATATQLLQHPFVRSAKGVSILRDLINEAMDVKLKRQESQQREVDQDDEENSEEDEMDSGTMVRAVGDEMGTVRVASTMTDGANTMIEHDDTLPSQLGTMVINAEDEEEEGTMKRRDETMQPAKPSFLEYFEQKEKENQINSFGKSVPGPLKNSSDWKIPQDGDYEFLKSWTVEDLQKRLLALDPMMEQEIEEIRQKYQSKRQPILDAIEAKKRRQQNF

T2: C. elegans polypeptide T24F1.3 (yeast two-hybrid; construct not stated) (C. elegans) (UniProt Q22744)
T2 sequence: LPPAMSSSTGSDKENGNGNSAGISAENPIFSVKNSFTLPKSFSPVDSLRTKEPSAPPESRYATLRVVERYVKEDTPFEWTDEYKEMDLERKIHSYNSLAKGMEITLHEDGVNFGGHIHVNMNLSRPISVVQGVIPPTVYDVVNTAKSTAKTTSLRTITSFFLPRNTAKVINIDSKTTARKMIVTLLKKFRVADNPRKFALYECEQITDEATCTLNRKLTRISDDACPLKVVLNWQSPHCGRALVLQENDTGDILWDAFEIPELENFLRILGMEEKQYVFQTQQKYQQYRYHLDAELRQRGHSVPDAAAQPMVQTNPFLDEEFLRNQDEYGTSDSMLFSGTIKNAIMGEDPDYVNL

T3: NORE (construct not stated) (mouse) (UniProt Q5EBH1)
T3 sequence: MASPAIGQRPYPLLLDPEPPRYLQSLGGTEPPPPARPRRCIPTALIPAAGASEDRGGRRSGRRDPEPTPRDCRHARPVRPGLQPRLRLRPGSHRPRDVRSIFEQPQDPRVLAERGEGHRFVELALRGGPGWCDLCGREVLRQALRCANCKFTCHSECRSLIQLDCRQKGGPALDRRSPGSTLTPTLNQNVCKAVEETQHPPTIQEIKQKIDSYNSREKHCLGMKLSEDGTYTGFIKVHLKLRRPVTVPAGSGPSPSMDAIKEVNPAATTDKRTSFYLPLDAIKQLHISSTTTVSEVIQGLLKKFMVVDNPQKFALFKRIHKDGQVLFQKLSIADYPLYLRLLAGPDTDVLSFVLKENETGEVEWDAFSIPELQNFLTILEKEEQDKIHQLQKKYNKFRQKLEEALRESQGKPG

T4: RASSF1A (yeast two-hybrid bait; construct not stated) (human) (UniProt Q9NS23)
T4 sequence: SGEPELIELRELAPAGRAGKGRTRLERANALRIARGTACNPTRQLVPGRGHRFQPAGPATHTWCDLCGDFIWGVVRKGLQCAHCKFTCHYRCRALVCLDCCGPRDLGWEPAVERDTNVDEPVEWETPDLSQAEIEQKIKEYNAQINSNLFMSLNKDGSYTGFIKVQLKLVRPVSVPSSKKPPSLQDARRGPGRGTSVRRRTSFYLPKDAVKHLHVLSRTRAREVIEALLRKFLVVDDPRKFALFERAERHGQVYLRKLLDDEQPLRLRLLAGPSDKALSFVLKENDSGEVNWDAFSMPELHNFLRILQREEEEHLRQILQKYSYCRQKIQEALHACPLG


Experiments:
[1] = target: T1, endogenous MST1 of KB cells; test: anti-MST1 immunoprecipitation from KB cell extracts, anti-NORE1 immunoblot
[2] = target: T1, endogenous MST1 of KB cells; test: goat anti-MST1 immunoprecipitation from KB cell extracts, anti-NORE1 immunoblot
[3] = target: T2, C. elegans polypeptide T24F1.3 (yeast two-hybrid; construct not stated) (C. elegans); test: yeast two-hybrid
[4] = target: T3, NORE (construct not stated) (mouse); test: yeast two-hybrid expression cloning, NORE bait
[5] = target: T4, RASSF1A (yeast two-hybrid bait; construct not stated) (human); test: yeast two-hybrid expression cloning, RASSF1A bait

Row | binding [1] | binding [2] | binding [3] | binding [4] | binding [5] | Binder
1 | binds | binds |  |  |  | endogenous NORE1 of KB cells (46 kDa NORE polypeptide) (protein, UniProt Q8WWW0 1-418, looked up) MAMASPAIGQRPYPLLLDPEPPRYLQSLSGPELPPPPPDRSSRLCVPAPLSTAPGAREGRSARRAARGNLEPPPRASRPARPLRPGLQQRLRRRPGAPRPRDVRSIFEQPQDPRVPAERGEGHCFAELVLPGGPGWCDLCGREVLRQALRCTNCKFTCHPECRSLIQLDCSQQEGLSRDRPSPESTLTVTFSQNVCKPVEETQRPPTLQEIKQKIDSYNTREKNCLGMKLSEDGTYTGFIKVHLKLRRPVTVPAGIRPQSIYDAIKEVNLAATTDKRTSFYLPLDAIKQLHISSTTTVSEVIQGLLKKFMVVDNPQKFALFKRIHKDGQVLFQKLSIADRPLYLRLLAGPDTEVLSFVLKENETGEVEWDAFSIPELQNFLTILEKEEQDKIQQVQKKYDKFRQKLEEALRESQGKPG
2 |  |  | binds | binds | binds | Ste20-related protein kinase MST1 (murine cDNA isolated in the yeast two-hybrid screen) (enzyme) METVQLRNPPRRQLKKLDEDSLTKQPEEVFDVLEKLGEGSYGSVYKAIHKETGQIVAIKQVPVESDLQEIIKEISIMQQCDSPHVVKYYGSYFKNTDLWIVMEYCGAGSVSDIIRLRNKTLTEDEIATILQSTLKGLEYLHFMRKIHRDIKAGNILLNTEGHAKLADFGVAGQLTDTMAKRNTVIGTPFWMAPEVIQEIGYNCVADIWSLGITAIEMAEGKPPYADIHPMRAIFMIPTNPPPTFRKPELWSDNFMDFVKQCLVKSPEQRATATQLLQHPFVKSAKGVSILRDLINEAMDVKLKRQEAQQREVDQDDEENSEEDEMDSGTMVRAAGDEMGTVRVASTMSGGANTMIEHGDTLPSQLGTMVINTEDEEEEGTMKRRDETMQPAKPSFLEYFEQKEKENQINSFGKNVSGSLKNSSDWKIPQDGDYEFLKSWTVEDLQKRLLALDPMMEQEMEEIRQKYRSKRQPILDAIEAKKRRQQNF

Source: US20050064384A1, “Recruitment of mst1 or mst2 protein kinase to induce apoptosis in eukaryotic cells” (priority 2001, published 2005)
